Measurements taken from publication PMC8484674.
These are yes or no findings as the source states them, for the method shown. Binding seen in cells or lysates may run through a third protein. These calls come from enrichment with a bait or labelling near it, and not all partners need be listed.

Amino acid sequences for entries named in this document (tags omitted).
UniProt Q14145: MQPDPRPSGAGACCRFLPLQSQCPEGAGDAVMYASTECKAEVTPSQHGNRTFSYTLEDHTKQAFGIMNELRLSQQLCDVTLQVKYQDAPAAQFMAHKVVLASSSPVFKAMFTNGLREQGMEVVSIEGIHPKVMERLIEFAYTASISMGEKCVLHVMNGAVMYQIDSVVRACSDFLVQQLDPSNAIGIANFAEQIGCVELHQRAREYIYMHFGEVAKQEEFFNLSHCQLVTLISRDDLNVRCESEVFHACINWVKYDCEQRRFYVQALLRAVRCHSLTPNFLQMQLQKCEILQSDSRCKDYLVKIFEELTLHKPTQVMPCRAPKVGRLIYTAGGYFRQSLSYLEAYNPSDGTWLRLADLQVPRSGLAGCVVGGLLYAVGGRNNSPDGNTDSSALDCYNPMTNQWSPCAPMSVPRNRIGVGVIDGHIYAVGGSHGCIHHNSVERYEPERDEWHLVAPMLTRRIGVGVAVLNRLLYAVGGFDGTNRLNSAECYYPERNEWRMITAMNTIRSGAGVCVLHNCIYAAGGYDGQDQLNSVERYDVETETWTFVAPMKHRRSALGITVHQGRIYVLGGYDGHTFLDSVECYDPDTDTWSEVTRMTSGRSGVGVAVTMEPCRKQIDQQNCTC

B1: Wdr1 (protein, UniProt O75083 1-606)
chain: MPYEIKKVFASLPQVERGVSKIIGGDPKGNNFLYTNGKCVILRNIDNPALADIYTEHAHQVVVAKYAPSGFYIASGDVSGKLRIWDTTQKEHLLKYEYQPFAGKIKDIAWTEDSKRIAVVGEGREKFGAVFLWDSGSSVGEITGHNKVINSVDIKQSRPYRLATGSDDNCAAFFEGPPFKFKFTIGDHSRFVNCVRFSPDGNRFATASADGQIYIYDGKTGEKVCALGGSKAHDGGIYAISWSPDSTHLLSASGDKTSKIWDVSVNSVVSTFPMGSTVLDQQLGCLWQKDHLLSVSLSGYINYLDRNNPSKPLHVIKGHSKSIQCLTVHKNGGKSYIYSGSHDGHINYWDSETGENDSFAGKGHTNQVSRMTVDESGQLISCSMDDTVRYTSLMLRDYSGQGVVKLDVQPKCVAVGPGGYAVVVCIGQIVLLKDQRKCFSIDNPGYEPEVVAVHPGGDTVAIGGVDGNVRLYSILGTTLKDEGKLLEAKGPVTDVAYSHDGAFLAVCDASKVVTVFSVADGYSENNVFYGHHAKIVCLAWSPDNEHFASGGMDMMVYVWTLSDPETRVKIQDAHRLHHVSSLAWLDEHTLVTTSHDASVKEWTITY
B2: Slc4a1ap (protein, UniProt Q9BWU0 1-742)
chain: MADILSQSETLASQDLSGDFKKPALPVSPAARSKAPASSSSNPEEVQKEGPTALQDSNSGEPDIPPPQPDCGDFRSLQEEQSRPPTAVSSPGGPARAPPYQEPPWGGPATAPYSLETLKGGTILGTRSLKGTSYCLFGRLSGCDVCLEHPSVSRYHAVLQHRASGPDGECDSNGPGFYLYDLGSTHGTFLNKTRIPPRTYCRVHVGHVVRFGGSTRLFILQGPEEDREAESELTVTQLKELRKQQQILLEKKMLGEDSDEEEEMDTSERKINAGSQDDEMGCTWGMGEDAVEDDAEENPIVLEFQQEREAFYIKDPKKALQGFFDREGEELEYEFDEQGHSTWLCRVRLPVDDSTGKQLVAEAIHSGKKKEAMIQCSLEACRILDTLGLLRQEAVSRKRKAKNWEDEDFYDSDDDTFLDRTGLIEKKRLNRMKKAGKIDEKPETFESLVAKLNDAERELSEISERLKASSQVLSESPSQDSLDAFMSEMKSGSTLDGVSRKKLHLRTFELRKEQQRLKGLIKIVKPAEIPELKKTETQTTGAENKAKKLTLPLFGAMKGGSKFKLKTGTVGKLPPKRPELPPTLMRMKDEPEVEEEEEEEEEEEKEKEEHEKKKLEDGSLSRPQPEIEPEAAVQEMRPPTDLTHFKETQTHENMSQLSEEEQNKDYQDCSKTTSLCAGPSASKNEYEKSRGELKKKKTPGPGKLPPTLSSKYPEDDPDYCVWVPPEGQSGDGRTHLNDKYGY
B3: Zbed3 (protein, UniProt Q96IU2 1-234)
chain: MRSGEPACTMDQARGLDDAAARGGQCPGLGPAPTPTPPGRLGAPYSEAWGYFHLAPGRPGHPSGHWATCRLCGEQVGRGPGFHAGTSALWRHLRSAHRRELESSGAGSSPPAAPCPPPPGPAAAPEGDWARLLEQMGALAVRGSRRERELERRELAVEQGERALERRRRALQEEERAAAQARRELQAEREALQARLRDVSRREGALGWAPAAPPPLKDDPEGDRDGCVITKVLL

Molecular target: His6-Halo-TEV-Keap1 (UniProt Q14145)
Test: affinity purification with mass spectrometry; SILAC HEK293T line expressing His6-Halo-TEV-Keap1, T-REX (Ht-preHNE(alkyne) 20 uM, 365 nm light) against control; pooled lysate (50 mM HEPES pH 7.6, 150 mM NaCl, 1% NP-40, 5 mM imidazole) on TALON resin 1 h at 4 °C, eluted with 200 mM imidazole …

Binder	binding
B1	binds
B2	binds
B3	binds
